Article PMC10163288
Some of the results follow.

B1: il2ra_site2_2erj_normal_mot_HHH_b1_01851_000000016_0001_43_56_H_._HHH_b1_04282_0001_0000100012_0000001_0 (protein)
chain: SSSSDEEEERIRELAEEAKRITDLREVYELVHEMLRIASERRDDELQELVMELFEEIVKLLSSSS
B2: il2ra_site1_2b5i_sap_17_mot_HHH_b1_07473_af2_000000006_0001_1_20_H_._HHH_b1_02077_af2_0002_0000800052_0000001_0_0001_af2pred_dldesign_0_af2pred (protein)
chain: SSSSDETFDKIYELYKEALEKRKQGDYEGTRELLEEALRLAEAANDAKIAAELRWLLAHLSSSSS
B3: il2ra_site1_3nfp_normal_mot_HHH_b2_06502_000000163_0001_42_55_H_._07104d7dbe42e49ee5b1eb09eb0325d4_0001_1_0001_0000400031_0000001_0_af2pred_0001_af2pred (protein)
chain: DKEKVIEKLLRDLENIPDPRVQEIVEEVKELLRQGDPEEALKLLKELAEELGDPNLRLLLERIER
B4: il2ra_site2_3nfp_sap_13_mot_HHH_b1_04032_000000208_0001_43_56_H_._HHH_b1_00623_af2_0001_0000100006_0000001_1_0001 (protein)
chain: SSSSSDEEIEELLQELERLLEEGDKEKFRRVAARAAHVIFENNDHEAFARLADLLYRLVGSSSSS
B5: il2ra_site2_3nfp_normal_mot_HHH_b1_05627_af2_000000038_0001_43_56_H_._HHH_b2_02672_af2_0001_0000400009_0000001_0 (protein)
chain: SSSSNKNEEYLRIALLLLEEALEAGDEEAIKELLEAIRIVAEILNDEEAKKLLEEVEEELSSSSS
B6: il2ra_site2_3nfp_normal_mot_HHH_b1_00660_af2_000000199_0001_40_57_H_._HHH_b2_07492_0001_0000100004_0000001_1 (protein)
chain: SSSSDVEERVRELLEKAEELREQGNPEEVRELLAEATQLAYENRDHEAFALILEVLFKLEHSSSS
B7: il2ra_site1_3nfp_normal_mot_HHH_b1_07560_af2_000000209_0001_40_57_H_._HHH_b2_06597_af2_0001_0000100007_0000001_0_af2pred_0001_af2pred_1 (protein)
chain: SSSSDIVRRVDELAREAIKLFERGNPEEAEKVLEEALKLAEEAGSELARRFLELLLKKLNSSSSS
B8: il2ra_site2_3nfp_sap_19_mot_HHH_b1_06589_000000230_0001_37_50_H_._HHH_b2_07793_0001_0000300009_0000001_0_0001_af2pred_0001_af2pred_swapped (protein)
chain: SSSSDREEEIRKLIEEAERLLEEGNPEEARKIVREALQLIRELGDAELAQELAEVIAKLESSSSS
B9: il2ra_site2_3nfp_normal_mot_HHH_b1_06613_af2_000000098_0001_23_40_H_._72a79b14e1a0e827e78e129a6f5f8f0c_0001_1_0001_0000300023_0000001_0_af2pred_0001_1_af2pred_s … (protein)
chain: TKELSRRILELYERGDPVAFELYALLADVQATGDPELRELLEEALEALERGNPEEAKEIVKKALK
B10: il2ra_site1_1z92_normal_mot_HHH_b2_00141_000000217_0001_1_20_H_._2fd006765095e2299ff75ffcaa73beff_0001_0001_0000100003_0000001_0_af2pred_0001_af2pred (protein)
chain: TNAEQVVEEAREKAPTPEERAELLIRILEEEANLPPELAIQLAKIIAKRLGDEELLRALEKLERK
B11: il2ra_site1_3nfp_normal_mot_HHH_b1_00258_000000025_0001_42_56_H_._HHH_b1_03924_af2_0002_0000500043_0000001_0_af2pred_0001_af2pred (protein)
chain: SSSSQELIRRASELFQQAAEADRRGNPEEARELLEEAREFAEEGGNPSLLRKIENALRVLESSSS
B12: il2ra_site1_3nfp_normal_mot_ems_3hC_3_0002_000000237_0001_23_41_H_._971380201c9414114138cf1fdc40c0f4_0001_1_0001_0000300014_0000001_0_af2pred_0001_af2pred (protein)
chain: SLAEELVEEIEEKGLPPEEIEKLIREILKRIGDPEEAREFFEELMRLAAKNRNEELLEAIKLVLR
B13: il2ra_site1_3nfp_sap_13_mot_128f4ffdc04e91eb29c4fde961ab618d_0001_000000128_0001_20_34_H_._1b95bd2019fc3dfb9cd1cac0defa3d0f_0001_0001_0000300011_0000001_0_0001 (protein)
chain: SSSSTEELRELLELVERAFRAAREGDEELVEELLEEAKELAEKLGDKIARRLLEDIEKNLSSSSS
B14: il2ra_site2_3nfp_normal_mot_HHH_b2_07129_000000128_0001_19_36_H_._HHH_b2_01739_af2_0001_0000100008_0000001_0 (protein)
chain: SSSSDEEERIEELIEQAEEALKKGDRELARKLLEELARLVWEHRDHEAFALVADLALLIQQSSSS
B15: il2ra_site1_2b5i_normal_mot_f5ff40796168375b462bec8614a1db4a_0001_1_000000138_0001_53_65_H_._HHH_b2_00149_0001_0000400026_0000001_0_af2pred_0001_af2pred_1 (protein)
chain: SSSSSDEELLRELIEALLELAKHIEDPERRRAVLQLALSAARKNNDEELEELVEEVIEELSSSSS
B16: il2ra_site1_2b5i_normal_mot_f5ff40796168375b462bec8614a1db4a_0001_1_000000138_0001_53_65_H_._HHH_b1_01266_0001_0000200014_0000001_0_af2pred_dldesign_0_af2pred (protein)
chain: SSSSSDARELVEELLERARALHEAGRPEEARRLLTLAARIARKAGDEELLARVEALRAELESSSS
B17: il2ra_site1_2b5i_sap_12_mot_HHH_b1_01346_af2_000000027_0001_1_20_H_._HHH_b1_06806_0001_0000800052_0000001_0_0001_af2pred_dldesign_0_af2pred (protein)
chain: SSSSDPRADVEELIAKAKELKEQGKLEEAYKIARLALRLARKLGDEELIARVQALLEEVKSSSSS
B18: il2ra_site1_2b5i_normal_mot_f5ff40796168375b462bec8614a1db4a_0001_1_000000138_0001_53_65_H_._HHH_b1_01133_0001_0000400021_0000001_0 (protein)
chain: SSSSSSSAEDLIEAFEEEAKRIEDPKRARSILHLAVALARANNNEELLEELEELLREVQSSSSSS
B19: il2ra_site2_3nfp_sap_29_mot_HHH_b1_07052_000000239_0001_40_58_H_._5f20bd37ef72b54d9d5808571b4331c8_0001_0001_0000400061_0000001_0_0001_af2pred_0001_1_af2pred_sw … (protein)
chain: SREAAELIQKLLEERPRDDLLSIIFALKADAKYLGNPEYVEKRVEELLEETGDPRLEEVLKLLKK
B20: il2ra_site2_2erj_sap_17_mot_HHH_b1_05198_000000252_0001_1_19_H_._HHH_b1_05377_af2_0001_0000100002_0000001_0_0001 (protein)
chain: SSSSDEEEIEELLEELKEALERGDEELFNRIATRVFELIKKLGDEELARILWRLMREFFNHSSSS
B21: il2ra_site1_1z92_normal_mot_HHH_b1_06519_000000232_0001_23_40_H_._HHH_b2_05843_af2_0001_0000400027_0000001_0 (protein)
chain: SSSSSSEEAIERLAEFLHRDARLTNNEWALRLLEALLRKAERAGDEELAKLIEELIERLKSSSSS
B22: il2ra_site2_3nfp_sap_21_mot_HHH_b1_07318_af2_000000161_0001_22_38_H_._faa969ecf94ee580e2909d366af2a6ce_0001_1_0001_0000200008_0000001_0_0001 (protein)
chain: SSSSSSVAELVQKAMELIKRGNLEEAEELLEEARKEAEEEGDEDTQRYLEALILLLRRESSSSSS
B23: il2ra_site1_3nfp_sap_11_mot_HHH_b2_07135_af2_000000166_0001_22_39_H_._HHH_b1_06265_af2_0001_0000100004_0000001_0_0001 (protein)
chain: DVAEMAIRHAVERNNPRLVERFLEQIERHFRRGNPAAKEAIELLEELLEELGNEELLEEVEKVRK
B24: il2ra_site2_2erj_sap_26_mot_HHH_b1_00245_000000182_0001_1_15_H_._1c4a7000c98f6bc3c941df408db38b63_0001_0001_0001900020_0000001_0_0001 (protein)
chain: SSSSDEIEEEVLELIAEAAHIPDPEKAREVLEKALEIAEEGNDELLRRYVELSLEDLRRASSSSS

These binders were tested against il2ra, P01589 (assay: yeast display titration).

Apparent Kd, inactive:
B1 no binding seen, B2 no binding seen, B3 no binding seen, B4 no binding seen, B5 no binding seen, B6 no binding seen, B7 no binding seen, B8 no binding seen, B9 no binding seen, B10 no binding seen, B11 no binding seen, B12 no binding seen, B13 no binding seen, B14 no binding seen, B15 no binding seen, B16 no binding seen, B17 no binding seen, B18 no binding seen, B19 no binding seen, B20 no binding seen, B21 no binding seen, B22 no binding seen, B23 no binding seen, B24 no binding seen
